Measured values from PubChem BioAssay AID1671190 (National Center for Advancing Translational Sciences (NCATS), 2021).
Values joined by “and” are separate entries in the source; they are usually repeats but may differ in a detail not shown here. Equal entries are not always repeated. Among all 580,000 compounds or so, about 6,100 (1.1%) were called active. The shares of active, inactive and inconclusive entries below differ from those in the screen. Calls follow the shape of the dose curve; as a rule, active = well fitted inhibition curve with a large enough effect; inconclusive = small, poorly fitted or top-dose-only effect, or another doubt; inactive = no such curve, though single readings can be large or run the other way. Potencies beside an inconclusive call are fits to weak or partial responses and may not hold up.

Protein sequences, listed by entry. Tags and fused reporters are not part of them.
UniProt P18054, whole entry, looked up: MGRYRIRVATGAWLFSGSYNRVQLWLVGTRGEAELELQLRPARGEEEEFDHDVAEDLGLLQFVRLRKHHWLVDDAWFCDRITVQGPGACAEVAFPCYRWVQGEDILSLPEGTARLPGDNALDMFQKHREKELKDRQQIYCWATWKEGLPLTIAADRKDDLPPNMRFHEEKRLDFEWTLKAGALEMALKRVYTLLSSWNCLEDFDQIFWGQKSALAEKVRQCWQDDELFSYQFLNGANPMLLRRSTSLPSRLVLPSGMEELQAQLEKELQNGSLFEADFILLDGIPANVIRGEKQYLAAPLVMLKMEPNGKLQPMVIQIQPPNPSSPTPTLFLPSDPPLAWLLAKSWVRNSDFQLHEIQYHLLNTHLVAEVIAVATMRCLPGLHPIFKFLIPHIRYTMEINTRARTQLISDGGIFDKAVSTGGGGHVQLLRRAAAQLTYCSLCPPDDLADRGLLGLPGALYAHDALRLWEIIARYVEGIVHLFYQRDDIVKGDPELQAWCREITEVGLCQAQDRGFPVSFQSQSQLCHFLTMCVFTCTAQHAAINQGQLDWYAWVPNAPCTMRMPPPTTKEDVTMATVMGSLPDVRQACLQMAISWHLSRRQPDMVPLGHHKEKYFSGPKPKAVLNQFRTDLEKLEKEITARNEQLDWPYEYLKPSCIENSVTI

target: Polyunsaturated fatty acid lipoxygenase ALOX12 (Homo sapiens) (UniProt P18054); experiment: Primary qHTS assay for inhibitors of human arachidonate 12S-lipoxygenase (ALOX12): Round 2; conditions: purified 12hLO, xylenol orange hydroperoxide absorbance; series mostly up to 108 µM
How it was run: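 Hydroperoxide product was detected by ferrous iron/xylenol orange as the 573 to 405 nm absorbance ratio. Arachidonic acid at 40 uM (final) was turned over for 30 min at room temperature by 150 nM human 12hLO, pH 7.0 Hepes buffer, after 15 min compound preincubation.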
Potency is read from the fitted curve at half-maximal effect.

| SMILES | Potency |
| --- | --- |
| COC(=O)c1cc2c(c3c4cc(OC)ccc4n(S(=O)(=O)c4ccccc4)c13)C(=O)N(C)C2 | inconclusive: 22.4 µM [inhibitor, partial curve, poor fit] |
| Cc1cccc(C)c1NC(=O)CN(C)C(=O)c1cc(S(=O)(=O)N(C)C)ccc1N1CCCC1 | inactive |
| CCCc1noc(C(C)Sc2nc(C3CC3)nc3ccccc23)n1 (centres undefined) | inactive |
| O=C(NC1CCCCC1)c1ccc(CN2CCOCC2)cc1 | inconclusive: 39.8 µM [inhibitor, partial curve, poor fit] |
| Cc1ccc(C(O)P(=O)(OCc2ccccc2)c2ccc(N(C)C)cc2)cc1 (centres undefined) | inconclusive: 89.1 µM [inhibitor, single point] |
| Cc1cccc(-n2c(-c3csc(C)c3)n[nH]c2=S)c1 | inconclusive: 35.5 µM [inhibitor, partial curve, poor fit] |
| CCCCNC(=O)c1sc(=S)n(-c2ccccc2OC)c1N | inconclusive: 50.1 µM [inhibitor, partial curve, poor fit] |
| O=C(CCC1CCCCC1)NCCc1cccc(Cl)c1 | inconclusive: 50.1 µM [inhibitor, partial curve, poor fit] |
| Cc1ccc(O)c(C2=NOC(O)(C(F)(F)F)C2)c1 (centres undefined) | inconclusive: 2.51 µM [inhibitor, full curve, poor fit] |
| Cc1cc2c(c(SCC(=O)NCCc3ccccc3)n1)C(=O)OC2 | inconclusive: 7.08 µM [inhibitor, full curve, poor fit] |
| O=C(COc1ccc2c(c1)CCC2)NCc1cccc(Cl)c1 | inactive |
| O=C1NN(c2ccc(Cl)c(Cl)c2)C(=O)/C1=C/c1ccc(-c2ccccc2C(=O)O)o1 | inconclusive: 44.7 µM [inhibitor, partial curve, poor fit] |
| Cc1ccc2c(c1)c1c(n2CC(O)CNC2CCCCC2)CCCC1 (centres undefined) | active: 28.2 µM |
| c1ccc(C2c3[nH]c4ccccc4c3CCN2Cc2cccn2-c2ccccn2)nc1 (centres undefined) | inactive |
| COC(=O)c1cnn(-c2ccc(F)cc2F)c1/C=N/NC(N)=S | inconclusive: 79.4 µM [inhibitor, partial curve, poor fit] |
| Cc1ccc(C(=O)O)cc1-c1ccc(/C=C2\SC(=O)N(CC(=O)Nc3ccccc3)C2=O)o1 | inconclusive: 39.8 µM [inhibitor, partial curve] |
| O=C(NCCCN1CCN(c2ccc(F)cc2)CC1)c1cc2c(s1)-c1ccccc1OC2 | inconclusive: 56.2 µM [inhibitor, partial curve, poor fit] |
| C=C(C)CCC1(C)NC(=O)N(c2ccccc2)N1 (centres undefined) | inconclusive: 44.7 µM [inhibitor, partial curve, poor fit] |
| COc1cc(C2NC(=O)N(C)C(C)=C2C(=O)OCCC(C)C)cc(Cl)c1O (centres undefined) | inconclusive: 89.1 µM [inhibitor, partial curve, poor fit] |
| Cc1ccc(-c2ncc(C(=O)Nc3ccc(F)cc3C)c(-c3ccncc3)n2)cc1 | inconclusive: 35.5 µM [inhibitor, partial curve] |

| SMILES | Potency |
| --- | --- |
| CCN(CC)c1ccc(/C=N/Nc2ccc(C)cc2)c(O)c1 | inconclusive: 44.7 µM [inhibitor, partial curve] |
| O=C1COc2ccc(Nc3ccccc3)nc2CN1CCOc1ccccc1 | inconclusive: 126 µM [inhibitor, partial curve] |
| CCOC(CN1CCN(CC(C)C(=O)c2ccccc2)CC1)c1ccccc1 (centres undefined) | inconclusive: 4.42 µM [inhibitor, partial curve] |
| CCOC(=O)C1=C(C)N=c2sc(=Cc3ccc(OCC(=O)O)cc3)c(=O)n2C1c1ccc(SC)cc1 (centres undefined) | inconclusive: 50.1 µM [inhibitor, partial curve, poor fit] |
| CC(C)Cn1c(N)c(C(=O)COC(=O)c2cccn2C)c(=O)n(C)c1=O | inactive |
| CSCCC1NC(=O)N(CC(=O)N2N=C(c3ccc(Cl)cc3)CC2c2ccco2)C1=O (centres undefined) | inconclusive: 50.1 µM [inhibitor, partial curve, poor fit] |
| CCOC(=O)CCN(Cc1ccccc1)S(=O)(=O)c1csc(C(N)=O)c1 | inconclusive: 5.62 µM [inhibitor, partial curve, poor fit] |
| CCN(CC)CCOC(=O)c1ccc(NC(=O)c2nn(-c3ccc(C)cc3)c(=O)c3c2c2ccccc2n3C)cc1 | inconclusive: 56.2 µM [inhibitor, partial curve, poor fit] |
| Cc1nc(/C=C/C(=O)N(Cc2ccccc2)C2CC2)cs1 | inactive |
| CNC(=S)NNC(=O)c1cccn(Cc2ccc(Cl)c(Cl)c2)c1=O | inconclusive: 79.4 µM [inhibitor, partial curve, poor fit] |
| CCc1cc(C(=O)c2ccc(OC)cc2)c(NC(=O)CN2CCN(C)CC2)s1 | inconclusive: 126 µM [inhibitor, single point] |
| CNC(=S)N/N=C/c1cc(C)ccc1C | inconclusive: 39.8 µM [inhibitor, partial curve] |
| O=C(Cc1ccccn1)N1CCC2(CC1)CCN(Cc1cccs1)c1ccccc1O2 | inconclusive: 35.5 µM [inhibitor, full curve] |
| COCCNC(=O)c1cccc2c1C(=O)c1ccc(N3CCOCC3)cc1S2(=O)=O | inconclusive: 89.1 µM [inhibitor, single point] |
| NS(=O)(=O)Oc1ccccc1 | inconclusive: 44.7 µM [inhibitor, partial curve, poor fit] |
| COc1ccccc1-c1n[nH]c(=S)n1-c1ccccc1 | inconclusive: 44.7 µM [inhibitor, partial curve, poor fit] |
| COc1ncc2nc(CCc3ccccc3)c(=O)n(Cc3cccs3)c2n1 | inconclusive: 79.4 µM [inhibitor, single point] |
| CC1CC2(CCCC2)Nc2ccc(F)cc21 (centres undefined) | inconclusive: 25.1 µM [inhibitor, single point] and inconclusive: 35.5 µM [inhibitor, partial curve, poor fit] |
| COC[C@@H]1CN(Cc2cccc(C#N)c2)C[C@H]1C(=O)N(C)C | inactive |

Another view of part of the listing above.
SMILES | Potency
CCCc1noc(C(C)Sc2nc(C3CC3)nc3ccccc23)n1 (centres undefined) | inactive
O=C(NC1CCCCC1)c1ccc(CN2CCOCC2)cc1 | inconclusive: 39.8 µM [inhibitor, partial curve, poor fit]
